Test results reported in article PMC10163288.
Some of the results follow.

B1: il2ra_site2_3nfp_sap_17_mot_HHH_b1_05628_af2_000000064_0001_19_35_H_._HHH_b1_04256_0001_0000500019_0000001_0_0001_af2pred_0001_af2pred (protein)
chain: DVEKRLWQLARERNNPDVFIALLIIRLLKEEGVPPEEIEQRVEEVIKKAGLPPEIEELLREAVRE
B2: il2ra_site2_2erj_sap_20_mot_HHH_b2_07792_af2_000000252_0001_18_34_H_._HHH_b2_00442_af2_0001_0000600024_0000001_0_0001 (protein)
chain: SSSSNEELRRLYELLEELLKLLHEGDEEEFEKVLEEAKELAKRLQSDTAKEVLELLERSLSSSSS
B3: il2ra_site1_3nfp_normal_mot_HHH_b1_01231_af2_000000170_0001_1_16_H_._HHH_b1_08672_af2_0001_0001700032_0000001_0_af2pred_0001_af2pred_swapped (protein)
chain: SSSSSEKEEEAKRIARLLLELALKGDREELEELLEKLRELAEELNNPYLERLLREVERLLSSSSS
B4: il2ra_site1_2b5i_normal_mot_HHH_b1_03543_af2_000000000_0001_42_54_H_._HHH_b1_06556_af2_0001_0000400053_0000001_0 (protein)
chain: SSSSDEEVEELFLQASRLFLNGNPEEARKVVEEALKLAEELGDEKQREELEFALERIRRSESSSS
B5: il2ra_site1_1z92_sap_13_mot_HHH_b2_00249_af2_000000052_0001_39_52_H_._HHH_b2_05896_af2_0001_0000200005_0000001_0_0001 (protein)
chain: SSSSSDEYDERIQELFHEASRITDPEEVRKLLEEAIELAREANDPRLLRDLEHFLEMRRGSSSSS
B6: il2ra_site2_2erj_normal_mot_6bd1339e93f6fdda22195c76da45ec5d_0001_000000136_0001_37_51_H_._HHH_b2_02164_0001_0000700010_0000001_0_af2pred_0001_af2pred (protein)
chain: SSSSSSELEEQVEELLEEAKRIEDKQEAIEVVLEAAHLAARAQNDELLEEVIKLSQELASSSSSS
B7: il2ra_site1_2b5i_normal_mot_HHH_b1_06258_af2_000000112_0001_42_56_H_._HHH_b1_00260_0001_0000100006_0000001_0_af2pred_0001_af2pred (protein)
chain: SSSSDEEEHEVDRLYIEASRAFLNGNPEEAQRLLEEALELAREIGDPLAEEQIRHMLELLRSSSS
B8: il2ra_site1_2b5i_normal_mot_f5ff40796168375b462bec8614a1db4a_0001_1_000000138_0001_53_65_H_._HHH_b1_00792_af2_0001_0000200014_0000001_0_af2pred_0001_af2pred (protein)
chain: SSSSDTIRHLIEALLKEAEELREKGNPERARAVLHLALATARAYNDEEAEERVKEVEERLRSSSS
B9: il2ra_site1_3nfp_normal_mot_HHH_b1_03753_af2_000000088_0001_41_54_H_._HHH_b2_07336_0001_0000200012_0000001_0_af2pred_0001_af2pred (protein)
chain: SSSSSEELSELRRRAMEAARRGDLEEARRLLEEAEEIARELGDEKQLEKIEHDLKLIELFESSSS
B10: il2ra_site2_3nfp_sap_19_mot_HHH_b1_06238_000000047_0001_1_16_H_._HHH_b2_02140_0001_0000100001_0000001_0_0001 (protein)
chain: SSSSDESEEYLRAALELAKEAIELGDREAAEKTLKLIRLAAEDANDEEALELAEELLREVGSSSS
B11: il2ra_site1_2b5i_normal_mot_HHH_b2_04910_000000118_0001_1_19_H_._HHH_b1_07627_af2_0001_0000400017_0000001_0_af2pred_dldesign_0_af2pred (protein)
chain: SSSSSALAEALALFLKADELKKAGKYEEAKKLLEEALRLAEAAGANSLARMIKLALKDLESSSSS
B12: il2ra_site1_3nfp_normal_mot_HHH_b1_00630_af2_000000193_0001_42_55_H_._HHH_b2_03971_0001_0000500036_0000001_0 (protein)
chain: SSSSTEELHHLSRLVERAYKALAEGNEEEVRELLEEARELAEELNDKVARRLLREIEKRLSSSSS
B13: il2ra_site1_2b5i_sap_10_mot_HHH_b1_06833_000000207_0001_1_19_H_._1119cc3ece11f8544cf99e05e324817a_0001_1_0001_0000300025_0000001_1_0001 (protein)
chain: SSSSSEEDRELVRFIWRLFWEFGLSHEQSRILDRVAVELLDEGLSPEEIKEILEEVAKELSSSSS
B14: il2ra_site2_2erj_sap_30_mot_3b06bd03f1c6bceadc68eab912867b79_0001_000000296_0001_36_50_H_._HHH_b1_05743_af2_0001_0000300011_0000001_0_0001 (protein)
chain: SSSSDEAEEKVEELLEEAREAYEKGDLHLVFELAVEAMRVASENNDREALRLVAEFLEELSSSSS
B15: il2ra_site2_3nfp_normal_mot_HHH_b1_02297_000000279_0001_41_58_H_._HHH_b2_08082_af2_0001_0000100002_0000001_0 (protein)
chain: SSSSDEEEIERLLERVEELIQQGDPEEARELLRELAVLAYENNDFELFARVNELLELLHRSSSSS
B16: il2ra_site1_2b5i_sap_10_mot_1b7c2b8d5952c6b49ef050017b44e09d_0001_af2_000000258_0001_1_14_H_._HHH_b1_00216_0001_0001900080_0000001_1_0001_af2pred_dldesign_0_af2 … (protein)
chain: SSSSSSGEEIRELLRKANALKQAGKAEEARKALEEALELAKKAGSNLWIKFIESALKQLESSSSS
B17: il2ra_site1_1z92_sap_24_mot_HHH_b1_08133_000000119_0001_1_19_H_._HHH_b1_00473_af2_0001_0000100001_0000001_0_0001 (protein)
chain: SSSSDEKAEEWLEFLRQQLEIAKRNNNERLLEWALELLEALARLHNDPEAEELIKELQELLSSSS
B18: il2ra_site2_3nfp_normal_mot_HHH_b2_04451_000000238_0001_21_37_H_._HHH_b1_06067_af2_0001_0000300023_0000001_0 (protein)
chain: SSSSDIEEEIKELLEEAEKLLEEGNRYEALELVARASELATEIQNPELARAILRLFLEIQSSSSS

target: il2ra, P01589; experiment: yeast display titration

Apparent Kd, inactive:
B1 no binding seen
B2 no binding seen
B3 no binding seen
B4 no binding seen
B5 no binding seen
B6 no binding seen
B7 no binding seen
B8 no binding seen
B9 no binding seen
B10 no binding seen
B11 no binding seen
B12 no binding seen
B13 no binding seen
B14 no binding seen
B15 no binding seen
B16 no binding seen
B17 no binding seen
B18 no binding seen

Two records picked at random from the list so far:
Apparent Kd, inactive:
B18 no binding seen
B16 no binding seen
